From US20200354404A1 (priority 2019, published 2020)

Experiment: general procedure: solution-phase peptide synthesis; TBTU/HOBt
Conditions: late stage modification step

Substance | step yield
Aza-FSSE (K883) | two steps, 75% yield
Aza-Endomorphin-2 (K763) | 98% yield
